The assay concerns the target MUC1-C subunit (human (endogenous in BT-549 and MDA-MB-468)). The assay can be described thus: co-IP; MDA-MB-468 cells; lysates precipitated with anti-MUC1-C or control IgG, Pierce Classic Magnetic Co-IP Kit; immunoblot of precipitates.

These are yes or no findings as the source states them, for the method shown. In cells and extracts the contact can be indirect. Binding calls can cover weak binding; strength is not graded here.

B1: non-POU domain-containing octamer-binding protein (NONO) (protein, UniProt Q15233 1-471)
chain: MQSNKTFNLEKQNHTPRKHHQHHHQQQHHQQQQQQPPPPPIPANGQQASSQNEGLTIDLKNFRKPGEKTFTQRSRLFVGNLPPDITEEEMRKLFEKYGKAGEVFIHKDKGFGFIRLETRTLAEIAKVELDNMPLRGKQLRVRFACHSASLTVRNLPQYVSNELLEEAFSVFGQVERAVVIVDDRGRPSGKGIVEFSGKPAARKALDRCSEGSFLLTTFPRPVTVEPMDQLDDEEGLPEKLVIKNQQFHKEREQPPRFAQPGSFEYEYAMRWKALIEMEKQQQDQVDRNIKEAREKLEMEMEAARHEHQVMLMRQDLMRRQEELRRMEELHNQEVQKRKQLELRQEEERRRREEEMRRQQEEMMRRQQEGFKGTFPDAREQEIRMGQMAMGGAMGINNRGAMPPAPVPAGTPAPPGPATMMPDGTLGLTPPTTERFGQAATMEGIGAIGGTPPAFNRAAPGAEFAPNKRRRY
Consider B1, for which the binding result is “binds”.

These data come from publication PMC11226401.
